No constants are given. Whether binding was seen depends on the method and setting. In cells and extracts the contact can be indirect. A result given as binding can be weak or reduced; the word gives no strength. For some of these results: Tags and fused reporters may be left off the sequences shown.
Key:
[1] = biological target: Myc-tagged human wild-type PINK1 (pBOS-3×-Myc-hPINK1-WT) (human) (UniProt Q9BXM7); assay: co-IP; HEK293 cells transfected 48 h with Myc-PINK1 and/or hTERT-HA; lysates separated into cytosolic and membrane organelle fractions, each immunoprecipitated with anti-Myc antibody, immunoblotted with anti-HA
[2] = biological target: Myc-tagged human wild-type PINK1 (pBOS-3×-Myc-hPINK1-WT) (human) (UniProt Q9BXM7); assay: co-IP; HEK293 cells transfected 48 h with Myc-PINK1 and/or hTERT-HA; total cell lysates immunoprecipitated with anti-Myc antibody, immunoblotted; lysis buffer 50 mM Tris pH 7.4, 1.0% Nonidet P-40, 150 mM NaCl, 10% glycerol; 4 °C
[3] = biological target: T1, FLAG-tagged mitochondrial processing peptidase β (FLAG-MPPβ) (UniProt O75439); assay: co-IP; HEK293 cells transfected (24 h or 48 h) with FLAG-MPPβ and Myc-PINK1 or hTERT-HA; total cell lysates immunoprecipitated with anti-FLAG antibody, immunoblotted
T1 sequence: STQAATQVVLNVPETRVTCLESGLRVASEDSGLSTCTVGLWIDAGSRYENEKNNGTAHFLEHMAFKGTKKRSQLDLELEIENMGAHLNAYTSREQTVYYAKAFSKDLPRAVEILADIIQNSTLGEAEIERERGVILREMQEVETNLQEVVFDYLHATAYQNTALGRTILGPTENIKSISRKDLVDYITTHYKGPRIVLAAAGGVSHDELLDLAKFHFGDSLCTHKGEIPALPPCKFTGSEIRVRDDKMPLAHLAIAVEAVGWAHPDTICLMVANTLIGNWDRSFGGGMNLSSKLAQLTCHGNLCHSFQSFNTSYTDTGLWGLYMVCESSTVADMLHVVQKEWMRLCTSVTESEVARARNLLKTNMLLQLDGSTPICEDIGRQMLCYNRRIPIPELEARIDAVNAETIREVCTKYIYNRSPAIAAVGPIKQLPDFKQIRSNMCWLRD

The chains behind the UniProt entries cited, without tags or fusion partners. Where a name states a change or a piece, a line headed by the entry shows the natural chain unless it says otherwise.
UniProt Q9BXM7: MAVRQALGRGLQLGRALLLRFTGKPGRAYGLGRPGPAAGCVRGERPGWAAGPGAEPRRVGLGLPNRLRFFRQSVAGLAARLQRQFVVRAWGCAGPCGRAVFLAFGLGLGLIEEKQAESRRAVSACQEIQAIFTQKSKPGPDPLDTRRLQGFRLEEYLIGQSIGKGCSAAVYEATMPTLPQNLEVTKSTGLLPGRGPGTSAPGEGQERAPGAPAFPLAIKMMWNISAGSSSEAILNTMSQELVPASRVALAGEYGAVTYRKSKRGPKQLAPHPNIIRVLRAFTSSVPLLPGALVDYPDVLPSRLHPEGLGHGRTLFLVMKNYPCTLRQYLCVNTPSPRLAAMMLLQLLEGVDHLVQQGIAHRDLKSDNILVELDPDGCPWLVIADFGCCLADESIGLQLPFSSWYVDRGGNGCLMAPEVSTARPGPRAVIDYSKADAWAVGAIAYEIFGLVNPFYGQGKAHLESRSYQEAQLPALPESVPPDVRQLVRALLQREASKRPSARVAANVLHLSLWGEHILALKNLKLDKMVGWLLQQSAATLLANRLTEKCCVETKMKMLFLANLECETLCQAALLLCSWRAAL
UniProt O14746: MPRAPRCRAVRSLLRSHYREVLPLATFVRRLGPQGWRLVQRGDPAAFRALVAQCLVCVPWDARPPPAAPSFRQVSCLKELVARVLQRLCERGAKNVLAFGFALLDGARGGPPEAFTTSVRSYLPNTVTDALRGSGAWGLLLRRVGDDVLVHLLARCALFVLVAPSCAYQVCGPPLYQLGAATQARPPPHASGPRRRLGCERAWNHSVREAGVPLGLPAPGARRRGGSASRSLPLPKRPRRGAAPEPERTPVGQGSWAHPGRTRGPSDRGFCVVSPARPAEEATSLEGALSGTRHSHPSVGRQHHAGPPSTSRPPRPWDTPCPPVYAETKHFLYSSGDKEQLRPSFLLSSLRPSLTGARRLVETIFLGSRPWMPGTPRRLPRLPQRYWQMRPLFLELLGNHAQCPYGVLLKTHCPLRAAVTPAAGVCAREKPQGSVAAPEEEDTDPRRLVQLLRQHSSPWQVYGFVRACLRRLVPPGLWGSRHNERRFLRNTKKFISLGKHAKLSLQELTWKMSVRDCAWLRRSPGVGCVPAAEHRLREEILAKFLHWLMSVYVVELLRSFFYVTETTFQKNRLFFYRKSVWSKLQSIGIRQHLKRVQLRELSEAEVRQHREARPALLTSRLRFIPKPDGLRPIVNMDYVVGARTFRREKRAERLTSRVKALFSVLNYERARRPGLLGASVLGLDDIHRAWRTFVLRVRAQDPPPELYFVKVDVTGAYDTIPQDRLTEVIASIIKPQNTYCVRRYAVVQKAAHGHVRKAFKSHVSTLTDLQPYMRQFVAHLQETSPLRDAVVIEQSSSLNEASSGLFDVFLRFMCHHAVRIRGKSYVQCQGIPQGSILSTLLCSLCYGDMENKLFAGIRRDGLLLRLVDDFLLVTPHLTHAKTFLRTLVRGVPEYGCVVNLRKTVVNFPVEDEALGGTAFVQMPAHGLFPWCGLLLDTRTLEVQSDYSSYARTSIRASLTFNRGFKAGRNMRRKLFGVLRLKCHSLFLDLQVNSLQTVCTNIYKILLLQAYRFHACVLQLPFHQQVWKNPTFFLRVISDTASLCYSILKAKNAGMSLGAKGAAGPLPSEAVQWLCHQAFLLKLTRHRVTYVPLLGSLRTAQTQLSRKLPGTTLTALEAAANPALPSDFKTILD

[4] = biological target: T1, FLAG-tagged mitochondrial processing peptidase β (FLAG-MPPβ); assay: co-IP; HEK293 cells transfected 48 h with PINK1-Myc and FLAG-MPPβ, with or without hTERT-HA, or with or without hTERT-siRNA and 40 μM anisomycin for 30 h; lysates immunoprecipitated with anti-FLAG antibody, immunoblotted

Row | binding [1] | binding [2] | binding [3] | binding [4] | Substance
1 | binds | binds |  |  | HA-tagged human telomerase reverse transcriptase (hTERT-HA) (from UniProt O14746 1-1132)
2 |  |  | binds | binds | Myc-tagged human wild-type PINK1 (pBOS-3×-Myc-hPINK1-WT) (from UniProt Q9BXM7)

From paper PMC7280311
